This passage reports conjugation yield results from US20050123936A1 (priority 2003, published 2005).

This data set in a line: general procedure: peptide synthesis; SASRIN resin (1.08 mmol eq/g) for peptide acids; Boc-Ala-PAM resin (0.59 mmol/g) for polyamide; HBTU/DIEA. The note with it: conjugation step.

Consider “2 (R=Ac-Phe-Tyr-Pro-Trp-Met-Lys-Gly-) (FYPWMKG)”, for which the conjugation yield (on polyamide 1 (2.67 umol)) is given as 62%.

“3 (R=Ac-Phe-Tyr-Pro-Ala-Ala-Lys-Gly-) (FYPAAKG)”: where the note is “on polyamide 1 (2.8 umol)”, the conjugation yield came to 26%.
